These are yes or no findings as the source states them, for the method shown. For some of these results: Binding seen in cells or lysates may run through a third protein. Some results given as binding are weak or reduced against the parent protein; the word gives no strength.
Assays:
[1] = target: Rictor, endogenous protein of 293T cells (human) (UniProt Q6R327); test: reciprocal co-immunoprecipitation from 293T cell lysates, western blot
[2] = target: Rictor, endogenous protein of murine BM cells (mouse) (UniProt Q6QI06); test: summary sentence of Example 1 (co-immunoprecipitation)
[3] = target: STAT3, endogenous protein of murine BM cells (mouse) (UniProt P42227); test: immunoprecipitation from BM cell lysates, immunoblot (FIGS. 2A-2E legend)
[4] = target: Rictor, endogenous protein of murine BM cells (mouse) (UniProt Q6QI06); test: reciprocal co-immunoprecipitation from murine BM cell lysates, western blot

Amino acid sequences for entries named in this document (tags omitted). A change or cut given only in a name is not applied to a line headed by its entry. Residues count along the entry.
UniProt Q6R327: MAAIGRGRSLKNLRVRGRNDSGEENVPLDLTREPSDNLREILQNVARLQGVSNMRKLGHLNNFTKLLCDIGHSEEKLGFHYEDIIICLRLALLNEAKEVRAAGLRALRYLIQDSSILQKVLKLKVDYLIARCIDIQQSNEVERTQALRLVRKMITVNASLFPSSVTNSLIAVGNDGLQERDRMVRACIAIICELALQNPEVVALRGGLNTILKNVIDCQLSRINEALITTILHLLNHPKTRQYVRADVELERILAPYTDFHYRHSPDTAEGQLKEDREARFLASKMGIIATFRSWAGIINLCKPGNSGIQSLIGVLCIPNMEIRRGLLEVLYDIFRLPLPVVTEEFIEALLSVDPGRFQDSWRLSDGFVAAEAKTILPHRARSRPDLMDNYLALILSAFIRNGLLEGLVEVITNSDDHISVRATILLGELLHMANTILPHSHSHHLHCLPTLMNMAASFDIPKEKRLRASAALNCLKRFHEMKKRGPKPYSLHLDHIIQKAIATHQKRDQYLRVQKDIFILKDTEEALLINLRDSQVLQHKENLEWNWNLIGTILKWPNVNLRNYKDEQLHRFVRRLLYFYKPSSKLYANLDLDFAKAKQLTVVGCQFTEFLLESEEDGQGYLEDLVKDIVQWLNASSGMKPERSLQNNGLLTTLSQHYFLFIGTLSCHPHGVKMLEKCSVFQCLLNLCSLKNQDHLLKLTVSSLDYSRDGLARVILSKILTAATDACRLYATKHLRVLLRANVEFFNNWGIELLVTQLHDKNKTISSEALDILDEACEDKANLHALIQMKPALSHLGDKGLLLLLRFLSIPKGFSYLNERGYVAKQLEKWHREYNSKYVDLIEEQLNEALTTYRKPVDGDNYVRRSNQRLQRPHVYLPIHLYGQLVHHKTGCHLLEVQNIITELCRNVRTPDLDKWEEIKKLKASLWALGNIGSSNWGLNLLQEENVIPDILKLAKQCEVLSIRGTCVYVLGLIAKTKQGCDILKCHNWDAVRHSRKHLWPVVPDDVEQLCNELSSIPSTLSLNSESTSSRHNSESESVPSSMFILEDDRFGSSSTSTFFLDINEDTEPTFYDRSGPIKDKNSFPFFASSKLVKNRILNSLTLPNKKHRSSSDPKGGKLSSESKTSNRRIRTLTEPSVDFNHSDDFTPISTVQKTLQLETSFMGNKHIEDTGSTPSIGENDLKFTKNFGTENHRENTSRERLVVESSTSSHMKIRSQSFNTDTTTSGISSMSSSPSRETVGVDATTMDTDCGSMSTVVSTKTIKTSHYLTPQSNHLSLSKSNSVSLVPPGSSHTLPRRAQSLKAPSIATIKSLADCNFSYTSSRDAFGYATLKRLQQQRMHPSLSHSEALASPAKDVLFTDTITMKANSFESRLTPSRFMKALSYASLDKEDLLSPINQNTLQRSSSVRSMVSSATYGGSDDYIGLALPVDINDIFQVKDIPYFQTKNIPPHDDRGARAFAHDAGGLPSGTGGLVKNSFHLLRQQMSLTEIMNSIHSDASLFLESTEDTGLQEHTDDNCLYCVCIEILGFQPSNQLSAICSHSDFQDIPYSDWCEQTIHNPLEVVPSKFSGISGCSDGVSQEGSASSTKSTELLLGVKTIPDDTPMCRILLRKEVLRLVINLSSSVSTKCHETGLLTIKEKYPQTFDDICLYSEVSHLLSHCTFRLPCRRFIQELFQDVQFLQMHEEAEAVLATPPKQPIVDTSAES
UniProt P42227, residues 2-770: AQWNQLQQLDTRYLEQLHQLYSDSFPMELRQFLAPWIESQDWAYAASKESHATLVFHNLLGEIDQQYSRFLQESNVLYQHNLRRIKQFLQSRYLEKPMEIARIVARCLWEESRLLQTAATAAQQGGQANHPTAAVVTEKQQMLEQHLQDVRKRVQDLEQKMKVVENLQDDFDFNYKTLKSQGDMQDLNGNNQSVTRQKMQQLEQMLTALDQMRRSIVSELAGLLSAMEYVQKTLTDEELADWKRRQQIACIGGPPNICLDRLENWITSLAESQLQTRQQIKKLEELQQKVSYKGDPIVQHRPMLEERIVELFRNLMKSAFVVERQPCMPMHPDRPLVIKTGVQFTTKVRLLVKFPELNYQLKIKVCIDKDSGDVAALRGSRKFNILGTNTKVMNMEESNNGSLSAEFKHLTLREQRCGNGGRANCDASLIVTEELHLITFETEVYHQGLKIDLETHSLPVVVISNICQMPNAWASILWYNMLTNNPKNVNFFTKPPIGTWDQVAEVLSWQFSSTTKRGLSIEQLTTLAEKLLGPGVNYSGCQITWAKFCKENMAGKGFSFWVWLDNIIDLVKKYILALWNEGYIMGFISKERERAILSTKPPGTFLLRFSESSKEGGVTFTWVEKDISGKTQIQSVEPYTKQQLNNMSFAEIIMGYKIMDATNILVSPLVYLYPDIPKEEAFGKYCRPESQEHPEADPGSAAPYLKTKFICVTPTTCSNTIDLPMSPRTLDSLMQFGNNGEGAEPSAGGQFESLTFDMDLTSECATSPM
UniProt Q86TY3, residues 28-774: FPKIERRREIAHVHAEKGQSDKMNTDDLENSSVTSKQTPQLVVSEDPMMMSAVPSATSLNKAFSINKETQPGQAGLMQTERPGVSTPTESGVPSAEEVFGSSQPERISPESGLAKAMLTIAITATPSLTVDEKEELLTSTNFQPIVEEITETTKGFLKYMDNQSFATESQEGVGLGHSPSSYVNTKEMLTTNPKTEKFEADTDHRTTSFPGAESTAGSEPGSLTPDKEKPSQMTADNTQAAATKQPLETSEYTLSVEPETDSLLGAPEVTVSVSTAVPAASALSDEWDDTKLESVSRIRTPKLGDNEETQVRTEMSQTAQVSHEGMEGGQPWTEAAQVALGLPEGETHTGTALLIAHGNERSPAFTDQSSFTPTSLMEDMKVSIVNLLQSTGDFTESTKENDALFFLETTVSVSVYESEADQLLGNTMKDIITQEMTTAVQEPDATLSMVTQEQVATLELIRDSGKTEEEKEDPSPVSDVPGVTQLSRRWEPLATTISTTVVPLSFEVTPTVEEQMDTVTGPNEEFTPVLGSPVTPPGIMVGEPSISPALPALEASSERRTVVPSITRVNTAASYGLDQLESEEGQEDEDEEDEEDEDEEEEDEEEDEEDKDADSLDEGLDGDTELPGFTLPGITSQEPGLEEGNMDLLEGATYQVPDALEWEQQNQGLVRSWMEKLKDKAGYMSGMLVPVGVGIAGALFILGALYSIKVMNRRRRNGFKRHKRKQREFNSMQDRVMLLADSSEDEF
UniProt Q8BT18, residues 48-775: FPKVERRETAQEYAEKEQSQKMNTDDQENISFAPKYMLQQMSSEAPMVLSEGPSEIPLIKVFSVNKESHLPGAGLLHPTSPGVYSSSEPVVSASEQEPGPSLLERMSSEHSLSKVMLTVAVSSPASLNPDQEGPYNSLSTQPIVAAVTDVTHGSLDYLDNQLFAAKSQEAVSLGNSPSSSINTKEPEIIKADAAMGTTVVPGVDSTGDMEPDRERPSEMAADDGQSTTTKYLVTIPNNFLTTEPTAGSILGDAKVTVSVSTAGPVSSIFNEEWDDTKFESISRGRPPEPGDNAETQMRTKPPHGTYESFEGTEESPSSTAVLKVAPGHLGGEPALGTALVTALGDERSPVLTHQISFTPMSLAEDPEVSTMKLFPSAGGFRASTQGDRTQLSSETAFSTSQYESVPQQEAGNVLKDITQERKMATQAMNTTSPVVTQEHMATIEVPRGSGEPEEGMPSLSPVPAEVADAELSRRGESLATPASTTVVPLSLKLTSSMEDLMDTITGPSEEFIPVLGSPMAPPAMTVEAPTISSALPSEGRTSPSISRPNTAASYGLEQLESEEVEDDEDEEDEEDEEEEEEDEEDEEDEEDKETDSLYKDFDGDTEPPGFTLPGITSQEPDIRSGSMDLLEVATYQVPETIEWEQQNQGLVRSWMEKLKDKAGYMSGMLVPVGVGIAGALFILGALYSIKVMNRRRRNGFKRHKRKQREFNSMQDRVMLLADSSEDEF

| binding [2] | binding [3] | binding [4] | Substance | binding [1] |
| --- | --- | --- | --- | --- |
|  |  |  | Suppressor of AKT (SAKT), endogenous protein of 293T cells (from UniProt Q86TY3 28-774) (receptor) | binds |
| binds | binds | binds | Suppressor of AKT (SAKT), endogenous protein of murine bone marrow (BM) cells (from UniProt Q8BT18 48-775) (receptor) |  |

Reference: patent US20170131280A1
